From ChEMBL document CHEMBL3988442, “University of Dundee, Small-Polar-MMV Screening Library” (2021).

Each number is a percent effect as filed. How 0% and 100% were set is not recorded. Most values in the screen are low, and negative values occur. Compounds were drawn at random from those tested, without regard to their results. Two or more numbers in one place are separate tests of the same structure; such repeats can differ widely.

A: 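Whole-cell growth test on Mycobacterium tuberculosis, read after 3 days in glucose-containing 7H9 medium; the read-out is not stated. Tested at 50 µM. Direction is inferred from retests: higher values go with more growth inhibition. Size under these conditions: about 69,000 compounds, about 760 of them at 50% or above in at least one test.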
B: 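Whole-cell growth test on Mycobacterium tuberculosis, read after 4 days in a medium based on cholesterol and the lipid DPPC; the read-out is not stated. Compounds at 50 µM. Higher reads as more growth inhibition (inferred: compounds with an IC50 in retests scored well above the rest). Of about 69,000 compounds tested this way, about 370 (0.54%) reached 50% or more in at least one test.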

structure | A | B
Cc1nc(CN2CCN(C(C)C(=O)NC3CCCC3)CC2)cs1 (stereo not shown) | -19.75% | -21.87%
O=C(NCc1cnc2n1CCN(Cc1ccsc1)CC2)C1CCC1.O=C(O)C(F)(F)F | 4.915% | -24.04%
O=C(CC1CCCC1)N1CCC(c2cc3ncccc3c(O)n2)CC1 | 34.22% | 36.73%
O=C(O)C(F)(F)F.O=C(O)C(F)(F)F.[H][C@@]12C[C@@H](C(=O)NC)N(C)[C@]1([H])CN(Cc1nccs1)C2 | -15.96% | -20.97%
CN(Cc1ccccc1)C(=O)CCNc1ncccc1C#N | -2.78% | 2.326%
Cn1ncc2c1C(COCC1CC1)CN(C(=O)Cc1ccsc1)C2 (stereo not shown) | 28.64% & -2.222% | -10.45% & -6.646%
COCCN(Cc1cc(O)nc2ccccc12)C(=O)NC(C)C | 21.08% | -28.9%
O=C(C1CN(CC2CCOCC2)CC12CCOCC2)N1CCOCC1.O=C(O)C(F)(F)F (stereo not shown) | -2.806% & -31.18% | -3.822%
CC(C)SCC(=O)N1Cc2cnc(-c3ccccc3)nc2C1 | -9.289% | 18.35%
O=C(O)C(F)(F)F.[H][C@@]12CCN(Cc3ccsc3)C[C@@]1([H])[C@H](C(=O)NCC1CC1)CCO2 | -27.91% | -13.07% & 5.662%
Cc1cc(C(=O)N2CCOCC2c2nc(C)c[nH]2)nc(O)n1 (stereo not shown) | -13.76% | -15.06% & 0.9307%
CN(C)CCN(Cc1ccc(C#N)cc1)C(=O)c1ccn(C)c(=O)c1 | -37.18% | -28.13%
CCc1nc(CN2CCCN(C(=O)C3CCOCC3)CC2)cs1 | -27.51% | -0.7223%
c1ccc(-n2ncc(CN3CCCC(Cn4cncn4)C3)n2)cc1 (stereo not shown) | -5.283% | -0.2938%
CC(O)CN1CCC(CNCc2ccccc2F)CC1 (stereo not shown) | 5.479% | -2.575%
Cn1ccc(C(=O)NCc2ccccc2CN2CCCCC2)cc1=O | -13.22% | -9.873%
CCc1nc(C)c(C(=O)N2CCNCC2C(=O)NCc2ccncc2)o1 (stereo not shown) | -2.793% & -7.54% | -15.91% & -8.737%
O=C(O)C(F)(F)F.[H][C@@]12CCN(c3ccncn3)C[C@@]1([H])[C@H](C(=O)NCc1ccco1)CCO2 | -17% | -3.33%
COc1cc(C(=O)NS(=O)(=O)c2cccc(C#N)c2)cc(OC)c1Br | -12.52% | 1.506%
COCCc1noc(CNC2CCSC2)n1 (stereo not shown) | 0.5911% | -9.496%
Nc1nc(CN2CCCC(Cn3cncn3)C2)nc2ccccc12 (stereo not shown) | 5.516% | -23.58%
[H][C@]12COC[C@H](N(CC)CC)[C@@]1([H])CN(Cc1cnn(C)c1)C2 | 24.77% | -1.392%
COc1ccc(CN2CCCC3(CCN(c4ccsc4)C3=O)C2)cc1.O=C(O)C(F)(F)F (stereo not shown) | 28.67% | 2.485%
Cc1cc(C)n(CCN2CCC(N(C)Cc3noc(C4CC4)n3)C2)n1 (stereo not shown) | -29.97% | 3.571%
Cc1ccc(-c2nc(C(=O)N3CCOCC3)cs2)c(C)c1 | -14.33% | 6.273%
Cc1nn(C)c2c(=O)n(CC(=O)NCc3ccccc3Cl)ccc12 | -4.393% | -12.73%
O=C(O)CCc1cccc(C2CCCN2Cc2ccc(F)c(F)c2)n1 (stereo not shown) | 15.34% | 0.6035%
CCCc1nc(C(=O)N(C)Cc2cnn(-c3cccc(OC)c3)c2)cs1 | 9.532% | 4.92%
CC(=O)N1CCC(c2cnc(-c3c(C)nn(C)c3C)cn2)CC1 | 1.747% | -2.678%
O=C(c1ccc(-n2ccnc2)nc1)N1CCN2CCCCC2C1 (stereo not shown) | 5.909% & 1.353% | 0.4227%
O=C(c1cccs1)N1CCC2(CC1)CC(Oc1ccccc1)CO2 (stereo not shown) | 26.59% & 12.55% | 9.287%
CC(Cn1cccn1)NC(=O)Nc1nncs1 (stereo not shown) | -7.893% | -9.737%
CC(C)c1nnc2n1CCN(C(=O)CN1Cc3ccccc3C1=O)C2 | 11.49% | 9.922%
COc1ccc(NC(=O)C2CCCO2)cc1OCc1cccnc1 (stereo not shown) | -29.45% | -39.76%
O=C(O)C(F)(F)F.O=C(O)C(F)(F)F.[H][C@@]12COC[C@]1(CNS(=O)(=O)CC)CN(Cc1cccnc1)C2 | -13.8% | -18.89%
CCc1nc(CN2CCCN(C(=O)CCOC(C)C)CC2)cs1 | 23.81% | -5.541%
CCOc1ccc(S(=O)(=O)N(CCOC)Cc2ccncc2)cc1F | 26.87% | 5.425%
CCc1[nH]c2c(CNc3nc(C)cc(NC)n3)cc(C)cc2c1C | 84.45% & 72.51% | 80.48%
Cn1ccnc1CCC1CCCCN1Cc1nccn1C (stereo not shown) | 21.86% | 5.214%
Cc1nc2ccc(C(=O)N3C[C@@H](O)[C@H](N4CCCC4)C3)cc2[nH]1 | -3.627% | -1.115%
O=C1CCN(C(=O)C2(c3ccc(F)cc3)CCCC2)CCN1 | 15.07% | 1.686%
Cn1nc(C2CC2)c2c1NC(=O)CC2c1cc(CN2CCCC2)cs1 (stereo not shown) | 12.08% | -11.4%
CN(Cc1cc(C(C)(C)C)n[nH]1)C(=O)c1ccc2nccn2c1 | 17.94% | -3.672%
Cc1cccc(C(Nc2nccc(-c3ccc(C)nc3C)n2)C2CC2)n1 (stereo not shown) | 16.75% | 0.7586%
Cc1ccc(OCc2occc2C(=O)N2CC[C@H](CO)[C@@H](O)C2)cc1 | -23.71% | -9.168%
Cc1nn(C)c(C)c1CNCc1cccnc1N1CCOCC1 | 17.93% | 6.154%
CCN(c1ccc(C(=O)NCc2cc[nH]n2)cc1)C(C)C | 5.023% | -13.1%
c1ccc(-n2cc(CNCC3CCCN3c3cccnn3)nn2)cc1 (stereo not shown) | 7.991% | -11.87%
O=S(=O)(CCNCc1cc(O)c2cc(F)ccc2n1)N1CCCC1 | 2.959% & -11.1% | -20.13%
CCNC(=O)NCc1cnn(-c2ccc(F)cc2F)c1 | 0.4871% | -15.4%
COc1c(C2CCCN2C(=O)c2ccc3c(c2)OCO3)c(C)nn1C (stereo not shown) | 10.38% & 2.251% | 2.759%
Cc1ccc(C(=O)NC2CCCN(CC(N)=O)C2)c(=O)[nH]1 (stereo not shown) | 28.79% | -27.41%
COc1cc(C(=O)N2CCC3(CC2)Nc2ccccc2NC3=O)ccn1 | 2.627% | -7.554% & -1.664%
CCCn1nnnc1CSc1nccn1C | -13.52% | -16.31%
Cn1cc(CN2CCC3(CC2)CN(c2cccnc2)C(=O)CO3)cn1 | 0.4516% | -2.925%
CCOC(=O)CNC(=O)NCc1cccn1Cc1ccccc1F | -4.05% | -15.58%
O=C(CCCc1ccccn1)N1CCC(n2cccc2)CC1 | -2.715% | -10.31%
COCCC(=O)N1CCCC(CCc2ccc(F)c(F)c2)C1 (stereo not shown) | 33.26% | 29.39%
CC(O)CN1CCN(Cc2csc(-c3cnn(C)c3)n2)CC1 (stereo not shown) | 0.121% | 4.265%
O=C(c1ccc(Cn2cnnn2)cc1)N1CCC(c2ccncc2)CC1 | -42.94% | 90.92%

Some entries from above, unchanged:

| structure | A | B |
|---|---|---|
| `O=C(CCCc1ccccn1)N1CCC(n2cccc2)CC1` | -2.715% | -10.31% |
| `COc1ccc(CN2CCCC3(CCN(c4ccsc4)C3=O)C2)cc1.O=C(O)C(F)(F)F` (stereo not shown) | 28.67% | 2.485% |
| `O=C(c1ccc(-n2ccnc2)nc1)N1CCN2CCCCC2C1` (stereo not shown) | 5.909% & 1.353% | 0.4227% |
| `CN(C)CCN(Cc1ccc(C#N)cc1)C(=O)c1ccn(C)c(=O)c1` | -37.18% | -28.13% |